Results on 28 molecules are retold here after the odorant receptor screen of Mainland et al. (2015).

Values joined by “and” are separate entries in the source; they are usually repeats but may differ in a detail not shown here. Identical values can stand only once. Some of the results follow. Single wells; the ratio to wells without odorant was worked out here, and repeats agree poorly.

The test system of one assay is OR10A7 clone 1252. The assay can be described thus: odorant receptor activation (CRE luciferase / Renilla) (fold of no-odor wells); higher = more activation. As to conditions: 100 µM.
In turn, `CC1CCC(C(C)C)C(O)C1` (single isomer, unassigned; (-)) [(-)-menthol] yielded an odorant receptor activation of 0.915.
On the same count and under the same terms, then `C=CCSCC=C` [diallyl sulfide], with 1.01.
`CC(C)=CCCC(C)=CC=O` [citral] gave an odorant receptor activation of 1.08.
The same measure, in the same setting: next, `COc1cc(C)ccc1O` [2-methoxy-4-methylphenol]: 1.04.
The same measure, in the same setting: next, `CC(=O)OC(C)(C)C1CC=C(C)CC1` (centres undefined) [terpinyl acetate]: 0.802; `CCCCCCCCC=O` [nonyl aldehyde]: 0.984.
Still for that read-out and setting: next, `O=C1CCCCCCCCCCCC(=O)OCCO1` [ethylene brassylate]: 1.46.
The molecule `CCCCCCCCOC(C)=O` [octyl acetate] displayed an odorant receptor activation of 1.25.
The molecule `c1ccc(Oc2ccccc2)cc1` [diphenyl ether] showed an odorant receptor activation of 0.99.
On the same count and under the same terms, then `CCCCCCCC=CC=O` [2-decenal], with 1.49; and `CC(C)C(=O)O` [isobutyric acid], with 1.07 and 0.984; and `CCCCCCOC(=O)CCC` [hexyl butyrate], with 0.72 and 0.882.
Still for that read-out and setting: then `C=CCc1ccc(O)c(OC)c1` [eugenol], with 0.659 and 1.41; and `CC(=O)OC1CC2CCC1(C)C2(C)C` (centres undefined) [isobornyl acetate], with 0.812 and 1.09; and `CC(C)C=O` [isobutyraldehyde], with 0.719 and 0.958.
Still for that read-out and setting: then `CCCCCCCCCCC=O` [undecanal], with 1.08; and `CC1=CCC(C(C)(C)O)CC1` (centres undefined) [terpineol], with 0.907; and `COC(=O)c1ccccc1O` [methyl salicylate], with 0.646.
Regarding `C=C(C)C1CC=C(C)C(=O)C1` (centres undefined) [r-carvone], the odorant receptor activation worked out at 0.825.
On the same count and under the same terms, then `CCCCO` [1-butanol], with 1.41.
Still for that read-out and setting: next, `CCC1(O)C2(C)CCC(C2)C1(C)C` (centres undefined) [2-ethylfenchol]: 1.07; `CC12CCC(C1)C(C)(C)C2=O` (centres undefined) [fenchone]: 1.06; `CCCCCCCC=O` [octyl aldehyde]: 1.
The same measure, in the same setting: then `CC(C)CCC(=O)O` [4-methylvaleric acid], with 1.4; and `C=CCc1ccc(OC)c(OC)c1` [eugenol methyl ether], with 1.36.
On to `O=CCc1ccccc1` [phenyl acetaldehyde], for which the odorant receptor activation amounted to 1.14.
In turn, `CC1CCC(C(C)C)C(O)C1` (single isomer, unassigned; (+)) [(+)-menthol] had an odorant receptor activation of 1.22.
On to `C=CCc1ccc(OC(C)=O)c(OC)c1` [eugenol acetate], for which the odorant receptor activation was determined as 1.85.

The next assay concerns OR10AD1 R166Q/S177N/W198R clone 1524. Described as above. As to conditions: 100 µM.
`CC1CCC(C(C)C)C(O)C1` (single isomer, unassigned; (-)) [(-)-menthol]: the odorant receptor activation was 3.68.
The molecule `C=CCSCC=C` [diallyl sulfide] came in with an odorant receptor activation of 1.18.
The molecule `CC(C)=CCCC(C)=CC=O` [citral] displayed an odorant receptor activation of 1.04.
Turning to `COc1cc(C)ccc1O` [2-methoxy-4-methylphenol], the odorant receptor activation came out at 0.834.
Turning to `CC(=O)OC(C)(C)C1CC=C(C)CC1` (centres undefined) [terpinyl acetate], the odorant receptor activation came out at 0.964.
The same measure, in the same setting: then `CCCCCCCCC=O` [nonyl aldehyde], with 1.03.
The same measure, in the same setting: next, `O=C1CCCCCCCCCCCC(=O)OCCO1` [ethylene brassylate]: 1.39; `CCCCCCCCOC(C)=O` [octyl acetate]: 1.14.
Same read-out and setting: next, `c1ccc(Oc2ccccc2)cc1` [diphenyl ether]: 1.15; `CCCCCCCC=CC=O` [2-decenal]: 1.47.
Turning to `CC(C)C(=O)O` [isobutyric acid], the odorant receptor activation is 0.934 and 0.889.
On to `CCCCCCOC(=O)CCC` [hexyl butyrate], for which the odorant receptor activation was 0.935 and 0.912.
On to `C=CCc1ccc(O)c(OC)c1` [eugenol], for which the odorant receptor activation is 2.15 and 1.03 and 1.29.
Consider `CC(=O)OC1CC2CCC1(C)C2(C)C` (centres undefined) [isobornyl acetate], for which the odorant receptor activation is 1.02 and 0.935.
Turning to `CC(C)C=O` [isobutyraldehyde], the odorant receptor activation was 1.27 and 1.14.
Still for that read-out and setting: then `CCCCCCCCCCC=O` [undecanal], with 1.
Still for that read-out and setting: next, `CC1=CCC(C(C)(C)O)CC1` (centres undefined) [terpineol]: 0.97; `COC(=O)c1ccccc1O` [methyl salicylate]: 0.941.
Same read-out and setting: next, `C=C(C)C1CC=C(C)C(=O)C1` (centres undefined) [r-carvone]: 0.882; `CCCCO` [1-butanol]: 1.36; `CCC1(O)C2(C)CCC(C2)C1(C)C` (centres undefined) [2-ethylfenchol]: 1.23.
`CC12CCC(C1)C(C)(C)C2=O` (centres undefined) [fenchone] gave an odorant receptor activation of 1.13.
In turn, `CCCCCCCC=O` [octyl aldehyde] had an odorant receptor activation of 1.02.
As to `CC(C)CCC(=O)O` [4-methylvaleric acid], the odorant receptor activation turned out to be 1.12.
On the same count and under the same terms, then `C=CCc1ccc(OC)c(OC)c1` [eugenol methyl ether], with 1.31; and `O=CCc1ccccc1` [phenyl acetaldehyde], with 1.12.
Still for that read-out and setting: then `CC1CCC(C(C)C)C(O)C1` (single isomer, unassigned; (+)) [(+)-menthol], with 1.2; and `C=CCc1ccc(OC(C)=O)c(OC)c1` [eugenol acetate], with 1.84.

The next assay has as its system OR10AG1 clone 1251. Described as above. As to conditions: 100 µM.
`CC1CCC(C(C)C)C(O)C1` (single isomer, unassigned; (-)) [(-)-menthol] registered an odorant receptor activation of 0.589.
On the same count and under the same terms, next, `C=CCSCC=C` [diallyl sulfide]: 0.901; `CC(C)=CCCC(C)=CC=O` [citral]: 1.29.
In turn, `COc1cc(C)ccc1O` [2-methoxy-4-methylphenol] came in with an odorant receptor activation of 1.43.
The same measure, in the same setting: next, `CC(=O)OC(C)(C)C1CC=C(C)CC1` (centres undefined) [terpinyl acetate]: 0.961.
Same read-out and setting: then `CCCCCCCCC=O` [nonyl aldehyde], with 0.957.
On the same count and under the same terms, then `O=C1CCCCCCCCCCCC(=O)OCCO1` [ethylene brassylate], with 1.61.
Consider `CCCCCCCCOC(C)=O` [octyl acetate], for which the odorant receptor activation was determined as 0.953.
The same measure, in the same setting: then `c1ccc(Oc2ccccc2)cc1` [diphenyl ether], with 0.818.
Still for that read-out and setting: then `CCCCCCCC=CC=O` [2-decenal], with 1.85.
`CC(C)C(=O)O` [isobutyric acid]: the odorant receptor activation was 0.73 and 1.04.
For the molecule `CCCCCCOC(=O)CCC` [hexyl butyrate], the odorant receptor activation is 0.71 and 0.796.
Turning to `C=CCc1ccc(O)c(OC)c1` [eugenol], the odorant receptor activation was 2.07 and 1.14.
Take `CC(=O)OC1CC2CCC1(C)C2(C)C` (centres undefined) [isobornyl acetate]: the odorant receptor activation was 1.15 and 0.847.
On the same count and under the same terms, then `CC(C)C=O` [isobutyraldehyde], with 0.773 and 1.03.
`CCCCCCCCCCC=O` [undecanal] returned an odorant receptor activation of 0.993.
Still for that read-out and setting: next, `CC1=CCC(C(C)(C)O)CC1` (centres undefined) [terpineol]: 1.01.
`COC(=O)c1ccccc1O` [methyl salicylate] yielded an odorant receptor activation of 0.96.
On the same count and under the same terms, then `C=C(C)C1CC=C(C)C(=O)C1` (centres undefined) [r-carvone], with 0.844.
Same read-out and setting: then `CCCCO` [1-butanol], with 1.49; and `CCC1(O)C2(C)CCC(C2)C1(C)C` (centres undefined) [2-ethylfenchol], with 1.58.
For the molecule `CC12CCC(C1)C(C)(C)C2=O` (centres undefined) [fenchone], the odorant receptor activation is 0.783.
On the same count and under the same terms, next, `CCCCCCCC=O` [octyl aldehyde]: 0.97; `CC(C)CCC(=O)O` [4-methylvaleric acid]: 1.4.
Still for that read-out and setting: next, `C=CCc1ccc(OC)c(OC)c1` [eugenol methyl ether]: 1.27; `O=CCc1ccccc1` [phenyl acetaldehyde]: 1.54; `CC1CCC(C(C)C)C(O)C1` (single isomer, unassigned; (+)) [(+)-menthol]: 1.24.
On the same count and under the same terms, then `C=CCc1ccc(OC(C)=O)c(OC)c1` [eugenol acetate], with 1.68.
